This assay deals with T1, Flag-tagged eEF2K, bait of the immunoprecipitation-mass spectrometry (human) (UniProt O00418).
T1 sequence: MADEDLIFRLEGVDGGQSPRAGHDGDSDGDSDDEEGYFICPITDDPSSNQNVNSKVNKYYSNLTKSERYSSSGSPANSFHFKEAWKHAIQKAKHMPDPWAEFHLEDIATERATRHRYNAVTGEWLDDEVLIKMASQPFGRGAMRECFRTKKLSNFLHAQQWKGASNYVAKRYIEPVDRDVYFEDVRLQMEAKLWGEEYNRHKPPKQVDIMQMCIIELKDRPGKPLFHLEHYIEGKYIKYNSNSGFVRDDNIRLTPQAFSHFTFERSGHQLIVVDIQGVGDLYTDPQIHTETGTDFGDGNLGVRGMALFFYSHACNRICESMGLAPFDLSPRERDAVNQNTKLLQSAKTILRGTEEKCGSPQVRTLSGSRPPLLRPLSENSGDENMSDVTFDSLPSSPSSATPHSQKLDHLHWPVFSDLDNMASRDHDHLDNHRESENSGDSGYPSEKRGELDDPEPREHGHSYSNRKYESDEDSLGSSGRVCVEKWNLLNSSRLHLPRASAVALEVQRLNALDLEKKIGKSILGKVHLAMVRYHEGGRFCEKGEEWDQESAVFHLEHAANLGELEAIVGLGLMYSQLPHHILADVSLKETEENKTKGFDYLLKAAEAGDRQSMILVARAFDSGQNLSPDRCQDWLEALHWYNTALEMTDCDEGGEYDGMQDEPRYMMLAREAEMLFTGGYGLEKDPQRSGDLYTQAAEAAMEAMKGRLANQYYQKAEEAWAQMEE
Description: affinity purification with mass spectrometry; Immunoprecipitation-Mass Spectrometry with anti-Flag antibodies; cells not told in the text shown.

The chains behind the UniProt entries cited, without tags or fusion partners.
UniProt O14965: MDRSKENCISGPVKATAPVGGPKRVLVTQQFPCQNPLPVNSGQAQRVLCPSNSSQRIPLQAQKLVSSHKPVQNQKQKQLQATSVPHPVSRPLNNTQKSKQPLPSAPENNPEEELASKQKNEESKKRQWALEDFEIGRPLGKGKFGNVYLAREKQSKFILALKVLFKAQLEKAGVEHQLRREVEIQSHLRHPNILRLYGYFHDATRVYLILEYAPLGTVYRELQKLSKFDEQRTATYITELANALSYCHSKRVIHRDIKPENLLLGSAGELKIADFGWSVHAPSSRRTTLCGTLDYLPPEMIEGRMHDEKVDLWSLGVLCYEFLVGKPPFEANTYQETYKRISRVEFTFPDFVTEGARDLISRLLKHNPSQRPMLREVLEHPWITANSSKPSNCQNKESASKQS

No constants are given. Whether binding was seen depends on the method and setting. Binding seen in cells or lysates may run through a third protein. These calls come from enrichment with a bait or labelling near it, and not all partners need be listed. Where a sequence is shown, tags or fusion partners need not be part of it.

In the case of “AURKA found in the immunoprecipitation-mass spectrometry (from UniProt O14965 1-403) (enzyme)”, the binding entry is on record as “binds”.

B1: Homer1 (protein, UniProt Q86YM7 1-354)
chain: MGEQPIFSTRAHVFQIDPNTKKNWVPTSKHAVTVSYFYDSTRNVYRIISLDGSKAIINSTITPNMTFTKTSQKFGQWADSRANTVYGLGFSSEHHLSKFAEKFQEFKEAARLAKEKSQEKMELTSTPSQESAGGDLQSPLTPESINGTDDERTPDVTQNSEPRAEPTQNALPFSHSSAISKHWEAELATLKGNNAKLTAALLESTANVKQWKQQLAAYQEEAERLHKRVTELECVSSQANAVHTHKTELNQTIQELEETLKLKEEEIERLKQEIDNARELQEQRDSLTQKLQEVEIRNKDLEGQLSDLEQRLEKSQNEQEAFRNNLKTLLEILDGKIFELTELRDNLAKLLECS
B1: the binding entry is reported as “binds”.

Values taken from publication PMC11984844.
